Assay results reported in US20160090605A1 (ACADEMIA SINICA, published 2016).
Results are given in words; binding and its absence hold for the method and conditions named. For some assays here: Binding seen in cells or lysates may run through a third protein. Some results given as binding are weak or reduced against the parent protein; the word gives no strength. For some assays here: Tags and fused reporters may be left off the sequences shown. Blank lines part the entries; values can stand above or below the molecule they belong to.

Chains of the proteins cited; added tags and fusions are not shown. Residues count along the entry.
UniProt P43297, residues 22-462: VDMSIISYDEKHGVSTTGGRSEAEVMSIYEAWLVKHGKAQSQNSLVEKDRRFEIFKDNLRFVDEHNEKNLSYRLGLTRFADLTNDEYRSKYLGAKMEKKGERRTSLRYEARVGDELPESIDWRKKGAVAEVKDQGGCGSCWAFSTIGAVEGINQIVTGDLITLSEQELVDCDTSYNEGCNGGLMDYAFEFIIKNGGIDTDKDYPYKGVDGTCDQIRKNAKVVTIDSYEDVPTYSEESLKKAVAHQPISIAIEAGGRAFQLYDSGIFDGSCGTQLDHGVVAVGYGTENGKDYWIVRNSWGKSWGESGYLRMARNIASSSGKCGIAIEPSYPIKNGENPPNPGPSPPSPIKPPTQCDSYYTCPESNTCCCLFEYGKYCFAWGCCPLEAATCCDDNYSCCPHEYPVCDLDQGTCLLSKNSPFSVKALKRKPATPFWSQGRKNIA

Experiments:
[1] = target: T1, Protein Disulfide Isomerase5 (PDI5) (Arabidopsis) (UniProt Q9XI01); assay: BiFC in seedlings
T1 sequence: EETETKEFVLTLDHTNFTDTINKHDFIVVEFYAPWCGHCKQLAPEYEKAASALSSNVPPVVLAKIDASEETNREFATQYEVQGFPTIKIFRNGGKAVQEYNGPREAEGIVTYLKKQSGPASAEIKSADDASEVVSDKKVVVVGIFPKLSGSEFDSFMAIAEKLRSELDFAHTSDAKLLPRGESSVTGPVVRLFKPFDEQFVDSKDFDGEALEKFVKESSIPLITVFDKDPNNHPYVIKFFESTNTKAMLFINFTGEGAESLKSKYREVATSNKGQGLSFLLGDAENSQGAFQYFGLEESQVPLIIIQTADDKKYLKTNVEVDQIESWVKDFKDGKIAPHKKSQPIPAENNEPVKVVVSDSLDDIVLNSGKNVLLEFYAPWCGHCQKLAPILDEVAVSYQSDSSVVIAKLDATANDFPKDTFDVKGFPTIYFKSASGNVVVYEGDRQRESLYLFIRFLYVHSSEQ

[2] = target: T2, AFL1 N-terminal fragment (amino acids 1 to 208) (Arabidopsis) (UniProt Q9LHD9); assay: yeast two hybrid library screen
T2 sequence: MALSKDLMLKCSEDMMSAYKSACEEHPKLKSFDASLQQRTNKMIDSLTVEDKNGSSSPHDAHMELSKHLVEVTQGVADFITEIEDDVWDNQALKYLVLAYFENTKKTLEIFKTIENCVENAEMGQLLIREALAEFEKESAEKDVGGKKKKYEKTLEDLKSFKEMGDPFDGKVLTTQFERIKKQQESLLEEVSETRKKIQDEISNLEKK

[3] = target: T2, AFL1 N-terminal fragment (amino acids 1 to 208) (Arabidopsis); assay: yeast two hybrid, beta-galactosidase filter assay, full-length prey
[4] = target: T2, AFL1 N-terminal fragment (amino acids 1 to 208) (Arabidopsis); assay: yeast two hybrid library screen (AFL1 N-terminus)
YFP-AFL1 (Arabidopsis) [5] = target: T3, YFP-AFL1 (Arabidopsis) (UniProt Q9LHD9); assay: Co-IP (GFP-trap pull-down of YFP-AFL1, immunoblot)
T3 sequence: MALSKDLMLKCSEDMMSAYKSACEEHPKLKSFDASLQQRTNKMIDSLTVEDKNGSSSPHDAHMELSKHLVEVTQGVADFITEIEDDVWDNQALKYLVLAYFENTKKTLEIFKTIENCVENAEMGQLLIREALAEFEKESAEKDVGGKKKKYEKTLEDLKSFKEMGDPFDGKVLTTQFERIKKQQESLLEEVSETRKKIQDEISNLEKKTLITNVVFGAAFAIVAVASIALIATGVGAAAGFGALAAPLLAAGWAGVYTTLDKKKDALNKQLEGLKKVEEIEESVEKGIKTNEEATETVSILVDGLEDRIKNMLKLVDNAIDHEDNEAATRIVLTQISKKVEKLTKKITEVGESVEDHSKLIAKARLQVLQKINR

YFP-AFL1 (Arabidopsis) [6] = target: T3, YFP-AFL1 (Arabidopsis); assay: Co-IP (FIG. 3 panel C)
YFP-AFL1 (Arabidopsis) [7] = target: T3, YFP-AFL1 (Arabidopsis); assay: Co-IP of PDI5-FLAG with YFP-AFL1
[8] = target: T2, AFL1 N-terminal fragment (amino acids 1 to 208) (Arabidopsis); assay: protein interaction data (yeast two hybrid)

- binding [1]: binds
Molecule: RD21 (from UniProt P43297 22-462) (enzyme)

- binding [2]: binds
- binding [3]: binds
- binding [4]: binds
B1: Protein Disulfide Isomerase5 (PDI5) (enzyme)
chain: T1 sequence

- binding (YFP-AFL1 (Arabidopsis) [5]): binds
- binding (YFP-AFL1 (Arabidopsis) [6]): binds
- binding (YFP-AFL1 (Arabidopsis) [7]): binds
B2: PDI5-FLAG (enzyme, not shown: small tags and cut ends)
chain: T1 sequence

- binding [2]: binds
- binding [4]: binds
- binding [8]: binds
B3: partial cDNA clones containing the C-terminal domain of AFL1 but not the two predicted helices (protein)
chain: VYTTLDKKKDALNKQLEGLKKVEEIEESVEKGIKTNEEATETVSILVDGLEDRIKNMLKLVDNAIDHEDNEAATRIVLTQISKKVEKLTKKITEVGESVEDHSKLIAKARLQVLQKINR

- binding [4]: binds
B4: C-terminal clones of At14a (protein)
chain: GVHTILENKIQAREKQEEALKKAHRIANEMDKGMETDKVDMNSISGKVHALKSKITSMLNAVKDATEDGANEVDTKQVMETLTGDVVELTEDIKAVGDDVAKYSKMIEETSYHVLQKITGSGK
